# Laboratory results taken from PMC7819943, “Rice protein-binding microarrays: a tool to detect cis-acting elements near promoter regions in rice”.
# By UniProt entry, the sequences of proteins in these tests, tags left out.
# UniProt Q0JBA9, entry or part of it: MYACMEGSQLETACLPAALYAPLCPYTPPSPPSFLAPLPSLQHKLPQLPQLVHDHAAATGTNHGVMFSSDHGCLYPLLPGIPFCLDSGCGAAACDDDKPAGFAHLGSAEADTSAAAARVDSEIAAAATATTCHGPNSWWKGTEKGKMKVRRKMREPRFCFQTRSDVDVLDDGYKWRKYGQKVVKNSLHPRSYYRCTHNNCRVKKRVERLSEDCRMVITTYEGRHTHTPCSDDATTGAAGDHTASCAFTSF
# This is one part of the list.
# Target: OsWRKY34 (Oryza sativa, UniProt Q0JBA9 1-250)
# Test: protein-binding microarray (RPBM); PBS, 2% BSA, 51.3 ng/ul salmon testes DNA, 50 uM zinc acetate, 200 nM TF, 25 C, 1 h; high values mean tight binding
# Conditions: protein: recombinant; tags: N-terminal polyhistidine and DsRed monomer fusion (pET32a); label: CyDye5-dUTP incorporated in the synthesized complementary strand; 3' TTTTT single-stranded linker to array surface; dsDNA, one strand shown
# Outline: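 In PBS with 2% BSA, salmon testes DNA and 50 µM zinc acetate, 200 nM protein was incubated on a custom Agilent array at 25 °C for 1 h and then washed off. The array had been made double-stranded by primer extension with Cy5-dUTP and blocked with 2% BSA. The proteins were transcription factors fused N-terminally to polyhistidine and DsRed, expressed in E. coli BL21-CodonPlus and purified on Ni–NTA. The binding signal is per-feature fluorescence intensity (arbitrary units) from an Axon 4000B scanner.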
row,Sequence,binding signal
1,CTTGAGGTCATCCCTGTCATTGATCTCTACAAGTTCGAGCCGGAGTCACCTAGTGCAG,10400 fluorescence intensity (a.u.)
2,TACTGGGGAATCGGTGGTGGTGGCGGCGGCGGTGGCGGCGCGGAGTCACCTAGTGCAG,9690 fluorescence intensity (a.u.)
3,GCCGTTTCTTCTTTCTTTTTTTTTTCCGTGTGTGTCGTTTCGGAGTCACCTAGTGCAG,16600 fluorescence intensity (a.u.)
4,GGGGAAATCGCTACCTAATCTGGCCTAACCGAGGTAATTACGGAGTCACCTAGTGCAG,9030 fluorescence intensity (a.u.)
5,CATGCTGGCCTATGTGGGTCCCACCATTTTTAATTTTTTTCGGAGTCACCTAGTGCAG,8140 fluorescence intensity (a.u.)
6,TGTTCATATGCTATACTCCTGTAATTGTAATCCTCCATACCGGAGTCACCTAGTGCAG,9160 fluorescence intensity (a.u.)
7,CACTAAACGGCCAAAATCTTCCATCGTATAGTTACGTCACCGGAGTCACCTAGTGCAG,8410 fluorescence intensity (a.u.)
8,AGATTGAAACTTATCTCCTTGTCGCCTCGTCATGGTGGGGCGGAGTCACCTAGTGCAG,8590 fluorescence intensity (a.u.)
9,TAATCATACTATTGCACCAACCGTTGCTGCCCATTTGCATCGGAGTCACCTAGTGCAG,8310 fluorescence intensity (a.u.)
10,TCAGTGACCGGTTCTTTTTTCCCAATGTCTCACTCACGGTCGGAGTCACCTAGTGCAG,12100 fluorescence intensity (a.u.)
11,CGGTTGCTCCTTTGCCTAATCACTCAATTCCAGTAACTTTCGGAGTCACCTAGTGCAG,8760 fluorescence intensity (a.u.)
12,CTTCCGCCGCGCGCTTCCTTGCCACCGCATCTAGGCCGGCCGGAGTCACCTAGTGCAG,11400 fluorescence intensity (a.u.)
13,TCGACTCACTCAATCCAGTCGTCACCCCAGCTCACACGCACGGAGTCACCTAGTGCAG,8250 fluorescence intensity (a.u.)
14,GTCCCTAACTCAACGTTATCCTGGTACGGCTACAGAGCGACGGAGTCACCTAGTGCAG,8390 fluorescence intensity (a.u.)
15,TCCTCCGCCGCCTCATGCCTCGCGCGCGCGCTCCCGCTCCCGGAGTCACCTAGTGCAG,9840 fluorescence intensity (a.u.)
16,ACCCGAGCCCTGACTGCAATTTACTCCGACGTGACCACTGCGGAGTCACCTAGTGCAG,8220 fluorescence intensity (a.u.)
17,GCTTCTTCCCTGTCCCCGGCGGCCGCCCGCGCCGCTTCTTCGGAGTCACCTAGTGCAG,8720 fluorescence intensity (a.u.)
18,CATTCTGTTCGAACAAGATTCCGTCCTATAGCATTTTTCTCGGAGTCACCTAGTGCAG,10500 fluorescence intensity (a.u.)
19,GCGTCGACCTCCGCCTCCGCGACCGGCCGTCACCTCGTCCCGGAGTCACCTAGTGCAG,9000 fluorescence intensity (a.u.)
20,ATTGCGCGCGAACAACATGATCCCCTAACCTTTGACCGTCCGGAGTCACCTAGTGCAG,8430 fluorescence intensity (a.u.)
21,ACCCATTTAATTTTTTTCCTTTTTTCTTTTTTCTTTCTCTCGGAGTCACCTAGTGCAG,9300 fluorescence intensity (a.u.)
22,AACGCTTCTCTCTCTCTCTCGGTTAATTGCCTGTCTGCGTCGGAGTCACCTAGTGCAG,12900 fluorescence intensity (a.u.)
23,GTTCAGTCACTCGCACGCTCGCTCGATCACCCGGCCGCCGCGGAGTCACCTAGTGCAG,10200 fluorescence intensity (a.u.)
24,CTTCCTAACGTTCATATCTCTGTGTTTTTAGTGTGTCATACGGAGTCACCTAGTGCAG,9860 fluorescence intensity (a.u.)
25,GGTTGCGATGCCGGCCGGGATGGATGGAGGTCGGGGATGACGGAGTCACCTAGTGCAG,9600 fluorescence intensity (a.u.)
26,ACGGTCGTGCTGCCCTCGAGTCAATTTCCATACACACGGCCGGAGTCACCTAGTGCAG,11500 fluorescence intensity (a.u.)
27,TACCATTTGTCGTCCAGCCGAACCCTGCTAGTATGGACCTCGGAGTCACCTAGTGCAG,8750 fluorescence intensity (a.u.)

# Copied from the listing (2 entries):
row,Sequence,binding signal
8,AGATTGAAACTTATCTCCTTGTCGCCTCGTCATGGTGGGGCGGAGTCACCTAGTGCAG,8590 fluorescence intensity (a.u.)
9,TAATCATACTATTGCACCAACCGTTGCTGCCCATTTGCATCGGAGTCACCTAGTGCAG,8310 fluorescence intensity (a.u.)

# Next records:

row,Sequence,binding signal
1,CCCTCGCCACGGCCGTTCTTGTAGCCATCTTCTTCTTGCTCGGAGTCACCTAGTGCAG,10200 fluorescence intensity (a.u.)
2,CCCCAATCCATCCCGTCTCCTCGCCCGGCGCCCTCGACTCCGGAGTCACCTAGTGCAG,8100 fluorescence intensity (a.u.)
3,CTTTGTACAATTCTGAAATTTTCCTTTGCCTTCATATGCGCGGAGTCACCTAGTGCAG,9310 fluorescence intensity (a.u.)
4,ATATACTCTAGTCTCTACCTGCTCTTTCCCAATCACACTCCGGAGTCACCTAGTGCAG,10600 fluorescence intensity (a.u.)
5,CCACAAAATCATCTCCCATTTGCAGTCCCATCTGCTTTCTCGGAGTCACCTAGTGCAG,10700 fluorescence intensity (a.u.)
6,TATCCCGTACGCGCGCTCGATCATCAGCTTGCATAGTCACCGGAGTCACCTAGTGCAG,9660 fluorescence intensity (a.u.)
7,AATTTCTTGTACTGTGTGAGCCATAGTAGTATAGCTTGATCGGAGTCACCTAGTGCAG,8370 fluorescence intensity (a.u.)
8,TCGACCCTATCGTTTTATCCGCATCTTAGCGCTCTCTCTCCGGAGTCACCTAGTGCAG,9800 fluorescence intensity (a.u.)
9,CCGCTGGCCCTTGTTGACACCTTGACTACGAAATGTATTCCGGAGTCACCTAGTGCAG,8980 fluorescence intensity (a.u.)
10,TTGCTTCTCTCCAGACTCTCTAGACTCCTCTGTTTGACGTCGGAGTCACCTAGTGCAG,8920 fluorescence intensity (a.u.)
11,CCGTTGTGTTGGTCGTACCCTGCTTTGCATCTGCACACGTCGGAGTCACCTAGTGCAG,12100 fluorescence intensity (a.u.)
12,TCTTTCTTGTCACAATATCTCCCTCTCATCCTTAGGTTTGCGGAGTCACCTAGTGCAG,8040 fluorescence intensity (a.u.)
13,GCCGAAATTGACATGTGACGCCCATAGTAAAGCCCACACGCGGAGTCACCTAGTGCAG,8980 fluorescence intensity (a.u.)
14,CCCTCACCCTATGTTCCTGTGTTTTGTACTCTTTCGTAACCGGAGTCACCTAGTGCAG,16300 fluorescence intensity (a.u.)
15,CGTCCGTACGTCTGCGTCTGCAGCCTTCCGTTTCGTTTTCCGGAGTCACCTAGTGCAG,13100 fluorescence intensity (a.u.)
16,TCCACCATTACACCACTTAACTCCTCTCCCTACACCACCACGGAGTCACCTAGTGCAG,8240 fluorescence intensity (a.u.)
17,TCCGAGTTTTTTTTTTCGTTTTCCCTCTGAATTCCGCGGCCGGAGTCACCTAGTGCAG,8860 fluorescence intensity (a.u.)
18,TATCTTATCAGGTCTCGTCTTCTTTAATCCAACCCTTGTTCGGAGTCACCTAGTGCAG,8680 fluorescence intensity (a.u.)
19,CCGCCGCCGCCGCCGCCGCTAGCTCTCTCTTCTCTTCGCTCGGAGTCACCTAGTGCAG,9710 fluorescence intensity (a.u.)
20,TCTTCCACCATTCAACAGCATTCGTCTTCTCATGCTTGTACGGAGTCACCTAGTGCAG,11000 fluorescence intensity (a.u.)
21,TATGTGTGACTATTTTTTTAATTTTTTCATAAATTTTTAGCGGAGTCACCTAGTGCAG,8440 fluorescence intensity (a.u.)
22,CCTCCGCCGCCGCCTCCGCGCCTCGCCTCGTCTCCTCCTCCGGAGTCACCTAGTGCAG,8140 fluorescence intensity (a.u.)
23,CTCCTCCTTGCCCTGGATCCGTTGTCTACCGACCCAAGAGCGGAGTCACCTAGTGCAG,9230 fluorescence intensity (a.u.)
24,CAGCCCAGCAAAAAGTCTACCTCTCCTGCCCACGCTACTGCGGAGTCACCTAGTGCAG,8140 fluorescence intensity (a.u.)
25,AGCAAAAACACATTTCCAACATTCGGTCTTCACTACTAGCCGGAGTCACCTAGTGCAG,8380 fluorescence intensity (a.u.)
26,CTGAGGCCTCCCTCTGAGTGCATATCGTAGGCAGCTTCCCCGGAGTCACCTAGTGCAG,8240 fluorescence intensity (a.u.)
27,TCTTTTCATGTTCATGTCCCTACCCTGTTAACCTCTCTATCGGAGTCACCTAGTGCAG,9210 fluorescence intensity (a.u.)
